No constants are given. Whether binding was seen depends on the method and setting. Binding seen in cells or lysates may run through a third protein. Some results given as binding are weak or reduced against the parent protein; the word gives no strength.
Target: T1, endogenous Hippo (Hpo) of S2 cells (Drosophila melanogaster (endogenous in S2 cells)) (UniProt Q8T0S6)
T1 sequence: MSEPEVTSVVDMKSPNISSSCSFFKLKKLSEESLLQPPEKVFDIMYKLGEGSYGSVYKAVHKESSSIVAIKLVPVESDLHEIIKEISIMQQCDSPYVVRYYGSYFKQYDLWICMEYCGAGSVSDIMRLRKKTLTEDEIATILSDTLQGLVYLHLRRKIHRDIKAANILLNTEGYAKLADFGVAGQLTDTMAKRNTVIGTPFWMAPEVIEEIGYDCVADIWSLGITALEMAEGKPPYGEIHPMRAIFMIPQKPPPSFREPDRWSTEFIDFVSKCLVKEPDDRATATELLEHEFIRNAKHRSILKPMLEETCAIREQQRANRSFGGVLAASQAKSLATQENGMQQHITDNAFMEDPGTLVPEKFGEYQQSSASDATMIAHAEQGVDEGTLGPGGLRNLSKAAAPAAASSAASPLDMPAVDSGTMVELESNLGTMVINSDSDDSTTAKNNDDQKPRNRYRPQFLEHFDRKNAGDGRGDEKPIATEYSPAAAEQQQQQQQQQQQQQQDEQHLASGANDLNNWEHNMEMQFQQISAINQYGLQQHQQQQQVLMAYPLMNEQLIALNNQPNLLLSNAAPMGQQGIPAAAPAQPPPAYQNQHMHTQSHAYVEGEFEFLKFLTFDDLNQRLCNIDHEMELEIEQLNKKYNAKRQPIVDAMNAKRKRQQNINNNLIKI
Test: co-IP; S2 cells transfected with Sav, with or without Par-1 or Par-1-KD; interaction of Sav with endogenous Hpo tested by immunoprecipitation (Figure 6C)

binding: binds
B1: Salvador (Sav), transfected (protein, UniProt Q9VCR6 1-608)
chain: MNYLTILLCNRKPTMLSRRNKEKSQHKEGVVGKYMKKDTPPDISVINVWSDQRAKKKSLQRCASTSPSCEFHPRSSSTSRNTYSCTDSQPDYYHARRAQSQMPLQQHSHSHPHSLPHPSHPHVRSHPPLPPHQFRASSNQLSQNSSNYVNFEQIERMRRQQSSPLLQTTSSPAPGAGGFQRSYSTTQRQHHPHLGGDSYDADQGLLSASYANMLQLPQRPHSPAHYAVPPQQQQHPQIHQQHASTPFGSTLRFDRAAMSIRERQPRYQPTSSPMQQQQQQQQQQQQQLQHTQLAAHLGGSYSSDSYPIYENPSRVISMRATQSQRSESPIYSNTTASSATLAVVPQHHHQGHLAVPSGSGGGSLSGSGRGGSSGSVRGASTSVQSLYVPPRTPPSAVAGAGGSANGSLQKVPSQQSLTEPEELPLPPGWATQYTLHGRKYYIDHNAHTTHWNHPLEREGLPVGWRRVVSKMHGTYYENQYTGQSQRQHPCLTSYYVYTTSAEPPKAIRPEASLYAPPTHTHNALVPANPYLLEEIPKWLAVYSEADSSKDHLLQFNMFSLPELEGFDSMLVRLFKQELGTIVGFYERYRRALILEKNRRAGQNQNQNQ
